# The supplement of paper PMC11438910
# This is one part of the list. Most of these values are background signal.
# B1: 4-173.3 (protein)
# chain 1: QLQLQESGPGLVKPSETLSLTCAVSGGSINNNYWSWIRQPPGKGLEWIGRIFGSGGSTDYNPSLKSRVTISTDTSKTQFSLNLNSVTAADTAVYFCARGSYQVDYWGQGVLVTVSS
# chain 2: QAALTQPPSMSGSPGQSVTISCTGTSSDIGGWNRVSWYQQYPGKAPKLMIYEVSKRPSGVSDRFSGSKSGNTASLTISGLQAEDEADYYCSSYVHINNALFGGGTRLTVL
# Assays:
# Test in all cases: fluorescence intensity of antibody binding to polysaccharide-coupled beads; higher = stronger binding
# [1] = biological target: pneumococcal polysaccharide C-Poly-1
# [2] = biological target: pneumococcal polysaccharide C-Poly-2
# [3] = biological target: pneumococcal polysaccharide Pn1
# [4] = biological target: pneumococcal polysaccharide Pn10A
# [5] = biological target: pneumococcal polysaccharide Pn10B
# [6] = biological target: pneumococcal polysaccharide Pn10C
# [7] = biological target: pneumococcal polysaccharide Pn10F
# [8] = biological target: pneumococcal polysaccharide Pn11A
# [9] = biological target: pneumococcal polysaccharide Pn11B
# [10] = biological target: pneumococcal polysaccharide Pn11C
# [11] = biological target: pneumococcal polysaccharide Pn11D
# [12] = biological target: pneumococcal polysaccharide Pn11F
# [13] = biological target: pneumococcal polysaccharide Pn12A
# [14] = biological target: pneumococcal polysaccharide Pn12B
# [15] = biological target: pneumococcal polysaccharide Pn12F
# [16] = biological target: pneumococcal polysaccharide Pn13
# [17] = biological target: pneumococcal polysaccharide Pn14
# [18] = biological target: pneumococcal polysaccharide Pn15A
# [19] = biological target: pneumococcal polysaccharide Pn15B
# [20] = biological target: pneumococcal polysaccharide Pn15C
# [21] = biological target: pneumococcal polysaccharide Pn15F
# [22] = biological target: pneumococcal polysaccharide Pn16A
# [23] = biological target: pneumococcal polysaccharide Pn16F
# [24] = antibody concentration 0.1 ng/mL
# [25] = antibody concentration 0.534724 ng/mL
# [26] = antibody concentration 2.8593 ng/mL
# [27] = antibody concentration 15.2894 ng/mL
# [28] = antibody concentration 81.7561 ng/mL
# [29] = antibody concentration 437.17 ng/mL
# [30] = antibody concentration 2337.65 ng/mL
# [31] = antibody concentration 12500 ng/mL
binder,measurement,setting,value
B1,fluorescence intensity,[1]; [24],24.5 MFI
same,fluorescence intensity,[1]; [25],22.5 MFI
same,fluorescence intensity,[1]; [26],26 MFI
same,fluorescence intensity,[1]; [27],24.5 MFI
same,fluorescence intensity,[1]; [28],25.5 MFI
same,fluorescence intensity,[1]; [29],27.8 MFI
same,fluorescence intensity,[1]; [30],35.5 MFI
same,fluorescence intensity,[1]; [31],99 MFI
same,fluorescence intensity,[2]; [24],19 MFI
same,fluorescence intensity,[2]; [25],19 MFI
same,fluorescence intensity,[2]; [26],21.5 MFI
same,fluorescence intensity,[2]; [27],20 MFI
same,fluorescence intensity,[2]; [28],19.5 MFI
same,fluorescence intensity,[2]; [29],22.5 MFI
same,fluorescence intensity,[2]; [30],29 MFI
same,fluorescence intensity,[2]; [31],81 MFI
same,fluorescence intensity,[3]; [24],12.5 MFI
same,fluorescence intensity,[3]; [25],12.8 MFI
same,fluorescence intensity,[3]; [26],13 MFI
same,fluorescence intensity,[3]; [27],13 MFI
same,fluorescence intensity,[3]; [28],14 MFI
same,fluorescence intensity,[3]; [29],14 MFI
same,fluorescence intensity,[3]; [30],15.5 MFI
same,fluorescence intensity,[3]; [31],29.8 MFI
same,fluorescence intensity,[4]; [24],26.5 MFI
same,fluorescence intensity,[4]; [25],25 MFI
same,fluorescence intensity,[4]; [26],25.5 MFI
same,fluorescence intensity,[4]; [27],25 MFI
same,fluorescence intensity,[4]; [28],26 MFI
same,fluorescence intensity,[4]; [29],26 MFI
same,fluorescence intensity,[4]; [30],26.5 MFI
same,fluorescence intensity,[4]; [31],35 MFI
same,fluorescence intensity,[5]; [24],24.5 MFI
same,fluorescence intensity,[5]; [25],22 MFI
same,fluorescence intensity,[5]; [26],21 MFI
same,fluorescence intensity,[5]; [27],21.8 MFI
same,fluorescence intensity,[5]; [28],22.8 MFI
same,fluorescence intensity,[5]; [29],24 MFI
same,fluorescence intensity,[5]; [30],25.5 MFI
same,fluorescence intensity,[5]; [31],29 MFI
same,fluorescence intensity,[6]; [24],16 MFI
same,fluorescence intensity,[6]; [25],16 MFI
same,fluorescence intensity,[6]; [26],13.5 MFI
same,fluorescence intensity,[6]; [27],15.5 MFI
same,fluorescence intensity,[6]; [28],16 MFI
same,fluorescence intensity,[6]; [29],16.5 MFI
same,fluorescence intensity,[6]; [30],17 MFI
same,fluorescence intensity,[6]; [31],20.5 MFI
same,fluorescence intensity,[7]; [24],21.2 MFI
same,fluorescence intensity,[7]; [25],19.5 MFI
same,fluorescence intensity,[7]; [26],21.5 MFI
same,fluorescence intensity,[7]; [27],19 MFI
same,fluorescence intensity,[7]; [28],19 MFI
same,fluorescence intensity,[7]; [29],18 MFI
same,fluorescence intensity,[7]; [30],19.8 MFI
same,fluorescence intensity,[7]; [31],23 MFI
same,fluorescence intensity,[8]; [24],28.5 MFI
same,fluorescence intensity,[8]; [25],24.8 MFI
same,fluorescence intensity,[8]; [26],28.2 MFI
same,fluorescence intensity,[8]; [27],27.5 MFI
same,fluorescence intensity,[8]; [28],28 MFI
same,fluorescence intensity,[8]; [29],30 MFI
same,fluorescence intensity,[8]; [30],34 MFI
same,fluorescence intensity,[8]; [31],46.8 MFI
same,fluorescence intensity,[9]; [24],21.5 MFI
same,fluorescence intensity,[9]; [25],25 MFI
same,fluorescence intensity,[9]; [26],20.5 MFI
same,fluorescence intensity,[9]; [27],22 MFI
same,fluorescence intensity,[9]; [28],23.8 MFI
same,fluorescence intensity,[9]; [29],24.5 MFI
same,fluorescence intensity,[9]; [30],27 MFI
same,fluorescence intensity,[9]; [31],34.5 MFI
same,fluorescence intensity,[10]; [24],24.5 MFI
same,fluorescence intensity,[10]; [25],21.5 MFI
same,fluorescence intensity,[10]; [26],21.5 MFI
same,fluorescence intensity,[10]; [27],20 MFI
same,fluorescence intensity,[10]; [28],22 MFI
same,fluorescence intensity,[10]; [29],22 MFI
same,fluorescence intensity,[10]; [30],27 MFI
same,fluorescence intensity,[10]; [31],80.5 MFI
same,fluorescence intensity,[11]; [24],21 MFI
same,fluorescence intensity,[11]; [25],22.2 MFI
same,fluorescence intensity,[11]; [26],23.5 MFI
same,fluorescence intensity,[11]; [27],22 MFI
same,fluorescence intensity,[11]; [28],22 MFI
same,fluorescence intensity,[11]; [29],22 MFI
same,fluorescence intensity,[11]; [30],25.8 MFI
same,fluorescence intensity,[11]; [31],47.5 MFI
same,fluorescence intensity,[12]; [24],14.5 MFI
same,fluorescence intensity,[12]; [25],13.5 MFI
same,fluorescence intensity,[12]; [26],12.5 MFI
same,fluorescence intensity,[12]; [27],13.8 MFI
same,fluorescence intensity,[12]; [28],12.8 MFI
same,fluorescence intensity,[12]; [29],12.8 MFI
same,fluorescence intensity,[12]; [30],14.2 MFI
same,fluorescence intensity,[12]; [31],21.5 MFI
same,fluorescence intensity,[13]; [24],16.5 MFI
same,fluorescence intensity,[13]; [25],16 MFI
same,fluorescence intensity,[13]; [26],14.5 MFI
same,fluorescence intensity,[13]; [27],13.5 MFI
same,fluorescence intensity,[13]; [28],14.2 MFI
same,fluorescence intensity,[13]; [29],13.8 MFI
same,fluorescence intensity,[13]; [30],18.8 MFI
same,fluorescence intensity,[13]; [31],30 MFI
same,fluorescence intensity,[14]; [24],15.5 MFI
same,fluorescence intensity,[14]; [25],15.5 MFI
same,fluorescence intensity,[14]; [26],15 MFI
same,fluorescence intensity,[14]; [27],14.8 MFI
same,fluorescence intensity,[14]; [28],14.5 MFI
same,fluorescence intensity,[14]; [29],14 MFI
same,fluorescence intensity,[14]; [30],18.5 MFI
same,fluorescence intensity,[14]; [31],27.5 MFI
same,fluorescence intensity,[15]; [24],18.5 MFI
same,fluorescence intensity,[15]; [25],18 MFI
same,fluorescence intensity,[15]; [26],18 MFI
same,fluorescence intensity,[15]; [27],18.8 MFI
same,fluorescence intensity,[15]; [28],18 MFI
same,fluorescence intensity,[15]; [29],19 MFI
same,fluorescence intensity,[15]; [30],21 MFI
same,fluorescence intensity,[15]; [31],36.5 MFI
same,fluorescence intensity,[16]; [24],17.5 MFI
same,fluorescence intensity,[16]; [25],19 MFI
same,fluorescence intensity,[16]; [26],19 MFI
same,fluorescence intensity,[16]; [27],17.8 MFI
same,fluorescence intensity,[16]; [28],18.5 MFI
same,fluorescence intensity,[16]; [29],18.5 MFI
same,fluorescence intensity,[16]; [30],18.8 MFI
same,fluorescence intensity,[16]; [31],27.5 MFI
same,fluorescence intensity,[17]; [24],13.8 MFI
same,fluorescence intensity,[17]; [25],14 MFI
same,fluorescence intensity,[17]; [26],14 MFI
same,fluorescence intensity,[17]; [27],14.8 MFI
same,fluorescence intensity,[17]; [28],15 MFI
same,fluorescence intensity,[17]; [29],15 MFI
same,fluorescence intensity,[17]; [30],22 MFI
same,fluorescence intensity,[17]; [31],68 MFI
same,fluorescence intensity,[18]; [24],11 MFI
same,fluorescence intensity,[18]; [25],12.5 MFI
same,fluorescence intensity,[18]; [26],12.5 MFI
same,fluorescence intensity,[18]; [27],12.5 MFI
same,fluorescence intensity,[18]; [28],12.2 MFI
same,fluorescence intensity,[18]; [29],12 MFI
same,fluorescence intensity,[18]; [30],14 MFI
same,fluorescence intensity,[18]; [31],15.5 MFI
same,fluorescence intensity,[19]; [24],17 MFI
same,fluorescence intensity,[19]; [25],17 MFI
same,fluorescence intensity,[19]; [26],16.5 MFI
same,fluorescence intensity,[19]; [27],17.5 MFI
same,fluorescence intensity,[19]; [28],18.5 MFI
same,fluorescence intensity,[19]; [29],19 MFI
same,fluorescence intensity,[19]; [30],23 MFI
same,fluorescence intensity,[19]; [31],30 MFI
same,fluorescence intensity,[20]; [24],16.5 MFI
same,fluorescence intensity,[20]; [25],19.2 MFI
same,fluorescence intensity,[20]; [26],14.2 MFI
same,fluorescence intensity,[20]; [27],14.5 MFI
same,fluorescence intensity,[20]; [28],16.8 MFI
same,fluorescence intensity,[20]; [29],14.5 MFI
same,fluorescence intensity,[20]; [30],17.5 MFI
same,fluorescence intensity,[20]; [31],22.2 MFI
same,fluorescence intensity,[21]; [24],16 MFI
same,fluorescence intensity,[21]; [25],15.5 MFI
same,fluorescence intensity,[21]; [26],16.5 MFI
same,fluorescence intensity,[21]; [27],15.5 MFI
same,fluorescence intensity,[21]; [28],18 MFI
same,fluorescence intensity,[21]; [29],16.2 MFI
same,fluorescence intensity,[21]; [30],18 MFI
same,fluorescence intensity,[21]; [31],24.2 MFI
same,fluorescence intensity,[22]; [24],13.2 MFI
same,fluorescence intensity,[22]; [25],13.5 MFI
same,fluorescence intensity,[22]; [26],14 MFI
same,fluorescence intensity,[22]; [27],12 MFI
same,fluorescence intensity,[22]; [28],12 MFI
same,fluorescence intensity,[22]; [29],13 MFI
same,fluorescence intensity,[22]; [30],14.5 MFI
same,fluorescence intensity,[22]; [31],22.5 MFI
same,fluorescence intensity,[23]; [24],23.2 MFI
same,fluorescence intensity,[23]; [25],24 MFI
same,fluorescence intensity,[23]; [26],21.5 MFI
same,fluorescence intensity,[23]; [27],22 MFI

# 5 entries from above, bar-delimited:
binder | measurement | setting | value
B1 | fluorescence intensity | [9]; [29] | 24.5 MFI
same | fluorescence intensity | [9]; [30] | 27 MFI
same | fluorescence intensity | [9]; [31] | 34.5 MFI
same | fluorescence intensity | [10]; [24] | 24.5 MFI
same | fluorescence intensity | [10]; [25] | 21.5 MFI

# Looked up one by one from the list above:
binder,measurement,setting,value
B1,fluorescence intensity,[10]; [26],21.5 MFI
same,fluorescence intensity,[2]; [24],19 MFI
